One assay addresses T1, FEZ1 (221-392) (human) (UniProt Q99689).
T1 sequence: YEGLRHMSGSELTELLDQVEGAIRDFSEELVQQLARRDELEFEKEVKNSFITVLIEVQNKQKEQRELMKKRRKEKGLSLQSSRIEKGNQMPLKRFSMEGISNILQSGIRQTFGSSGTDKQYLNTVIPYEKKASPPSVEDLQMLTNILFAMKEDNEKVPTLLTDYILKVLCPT
Description: two-hybrid; yeast, beta-galactosidase activity; empty vector pBTM116 as control.

In assay [1] the target is T2, 6xHis-FEZ1 (1-392) (human) (UniProt Q99689).
T2 sequence: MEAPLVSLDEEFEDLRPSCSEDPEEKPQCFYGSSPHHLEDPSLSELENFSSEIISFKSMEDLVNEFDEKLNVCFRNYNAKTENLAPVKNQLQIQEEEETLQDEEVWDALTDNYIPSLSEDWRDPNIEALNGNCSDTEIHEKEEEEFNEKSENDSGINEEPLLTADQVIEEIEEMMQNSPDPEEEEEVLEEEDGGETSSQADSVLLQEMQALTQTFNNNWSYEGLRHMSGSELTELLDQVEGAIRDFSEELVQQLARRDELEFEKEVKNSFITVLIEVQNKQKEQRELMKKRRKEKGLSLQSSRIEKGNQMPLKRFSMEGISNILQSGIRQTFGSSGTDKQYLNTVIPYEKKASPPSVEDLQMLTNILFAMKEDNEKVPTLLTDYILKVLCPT
The assay can be described thus: cross-linking; 5 x 10^-10 mol of each purified recombinant protein, 1.25 mM DSS, 2 h, room temperature; shifted bands of 12% SDS-PAGE digested with trypsin, LTQ Velos Orbitrap MS, MassMatrix search; done two times; both purified.

Results are given in words; binding and its absence hold for the method and conditions named. A result given as binding can be weak or reduced; the word gives no strength. For part of these data: Sequences can lack the tags named with a protein.

This note sets out measurements from PMC3792052, “Structural Analysis of Intermolecular Interactions in the Kinesin Adaptor Complex Fasciculation and Elongation Protein Zeta 1/ Short Coiled-Coil Protein (FEZ1/SCOCO)” (PLoS ONE, 2013).

As to “SCOCO (2-65), two-hybrid fusion (human) (domain or fragment)”, the binding result with FEZ1 (221-392) (human) was “binds”. As to 6xHis-SCOCO (2-82) (human), the binding entry in assay [1] is reported as “binds”. On to SCOCO (2-82), two-hybrid fusion (human), for which the binding entry in the assay with FEZ1 (221-392) (human) was “binds”.
